Some of these results come from one statement about several compounds together.
Test system: Klebsiella pneumoniae (ATCC BAA-2146 NDM-I positive)
Assay: Inactivation of K. pneumoniae by 300 ns electric pulses and/or antibiotics (CFU plating)
Assay type: cell-based
Source text: Except for rifampicin, the five other antibiotics in these examples primarily target gram-positive bacteria and are largely ineffective or not used against gram-negative bacteria in a clinical setting.
A Blumlein pulsed generator consisting of two lines comprised of twelve 2000 pF capacitors connected by inductors produced 300 ns EPs with rise-times of 30 ns and fall-times of 35 ns at a repetition frequency of 1 Hz (12). The EPs were applied to a standard 2 mm gap electroporation cuvette (Dot Scientific R) filled with a solution containing the microorganisms. Used was a Luria broth of 0.5% salinity (5 grams of NaCl/Liter) for the solution to electrically match the resistance of the sample with the impedance of the pulse generator (11Ω) to prevent signal reflection. The voltage measurements were taken using a LeCroy PPE 20 kV high voltage probe with a 1000:1 attenuation recorded by a TeleDyne LeCroy® Waverunner 6 Zi Oscilloscope with a bandwidth of 4 GHZ.
The gram-negative strains included a carbapenem-resistant Escherichia coli (ATCC® BA-2452TM, New Delhi metallo-beta-lactamase NDM-1 positive.), Klebsiella pneumoniae (ATCC® BAA-2146TM NDM-I positive), and a gentamicin, streptomycin and sulfonamide resistant Pseudomonas aeruginosa (BEI Resources NR-31040). Assessed was the gram-positive strain of methicillin resistant Staphylococcus aureus (USA300-0114 strain), which is also resistant to erythromycin and tetracycline. Samples were cultured in Luria broth (LB Broth Lennox, powder microbial growth medium, SIGMA-ALDRICH®) by taking 25 mL of broth in a 50 mL sterile conical tube and incubating in a shaker for 16 h at 37° C. Samples were diluted 50% by adding 25 mL media to the incubated sample as we plated controls for each experiment and condition. […]
Removed was 20 μL from each cuvette and added to 180 μL of PBS in a 96-well dish in triplicate. […] These plates were then cultured overnight in an incubator at 37° C., and counted the next day.

`CN[C@H](CC(C)C)C(=O)N[C@H]1C(=O)N[C@@H](CC(N)=O)C(=O)N[C@H]2C(=O)N[C@H]3C(=O)N[C@H](C(=O)N[C@H](C(=O)O)c4cc(O)cc(O)c4-c4cc3ccc4O)[C@H](O)c3ccc(c(Cl)c3)Oc3cc2cc(c3O[C@@H]2O[C@H](CO)[C@@H](O)[C@H](O)[C@H]2O[C@H]2C[C@](C)(N)[C@H](O)[C@H](C)O2)Oc2ccc(cc2Cl)[C@H]1O` [vancomycin] was tested, and the “synergy, K. pneumoniae” value (30 kV/cm EPs + 2 μg/mL or 20 μg/mL (FIG. 9B legend)) was ≥ 1 log, the “additional inactivation compared to NSEPs alone, K. pneumoniae” value (30 kV/cm NSEPs + 20 μg/mL) was “over 1 log” and the “log reduction of K. pneumoniae / improvement over the NSEPs” value (30 kV/cm NSEPs + 20 μg/mL) was “over 4 log”.
